Results: PMC10667520
Results are given in words; binding and its absence hold for the method and conditions named. Binding seen in cells or lysates may run through a third protein. Some results given as binding are weak or reduced against the parent protein; the word gives no strength. Tags and fused reporters may be left off the sequences shown.

The chains behind the UniProt entries cited, without tags or fusion partners. Where a name states a change or a piece, a line headed by the entry shows the natural chain unless it says otherwise.
UniProt P46531: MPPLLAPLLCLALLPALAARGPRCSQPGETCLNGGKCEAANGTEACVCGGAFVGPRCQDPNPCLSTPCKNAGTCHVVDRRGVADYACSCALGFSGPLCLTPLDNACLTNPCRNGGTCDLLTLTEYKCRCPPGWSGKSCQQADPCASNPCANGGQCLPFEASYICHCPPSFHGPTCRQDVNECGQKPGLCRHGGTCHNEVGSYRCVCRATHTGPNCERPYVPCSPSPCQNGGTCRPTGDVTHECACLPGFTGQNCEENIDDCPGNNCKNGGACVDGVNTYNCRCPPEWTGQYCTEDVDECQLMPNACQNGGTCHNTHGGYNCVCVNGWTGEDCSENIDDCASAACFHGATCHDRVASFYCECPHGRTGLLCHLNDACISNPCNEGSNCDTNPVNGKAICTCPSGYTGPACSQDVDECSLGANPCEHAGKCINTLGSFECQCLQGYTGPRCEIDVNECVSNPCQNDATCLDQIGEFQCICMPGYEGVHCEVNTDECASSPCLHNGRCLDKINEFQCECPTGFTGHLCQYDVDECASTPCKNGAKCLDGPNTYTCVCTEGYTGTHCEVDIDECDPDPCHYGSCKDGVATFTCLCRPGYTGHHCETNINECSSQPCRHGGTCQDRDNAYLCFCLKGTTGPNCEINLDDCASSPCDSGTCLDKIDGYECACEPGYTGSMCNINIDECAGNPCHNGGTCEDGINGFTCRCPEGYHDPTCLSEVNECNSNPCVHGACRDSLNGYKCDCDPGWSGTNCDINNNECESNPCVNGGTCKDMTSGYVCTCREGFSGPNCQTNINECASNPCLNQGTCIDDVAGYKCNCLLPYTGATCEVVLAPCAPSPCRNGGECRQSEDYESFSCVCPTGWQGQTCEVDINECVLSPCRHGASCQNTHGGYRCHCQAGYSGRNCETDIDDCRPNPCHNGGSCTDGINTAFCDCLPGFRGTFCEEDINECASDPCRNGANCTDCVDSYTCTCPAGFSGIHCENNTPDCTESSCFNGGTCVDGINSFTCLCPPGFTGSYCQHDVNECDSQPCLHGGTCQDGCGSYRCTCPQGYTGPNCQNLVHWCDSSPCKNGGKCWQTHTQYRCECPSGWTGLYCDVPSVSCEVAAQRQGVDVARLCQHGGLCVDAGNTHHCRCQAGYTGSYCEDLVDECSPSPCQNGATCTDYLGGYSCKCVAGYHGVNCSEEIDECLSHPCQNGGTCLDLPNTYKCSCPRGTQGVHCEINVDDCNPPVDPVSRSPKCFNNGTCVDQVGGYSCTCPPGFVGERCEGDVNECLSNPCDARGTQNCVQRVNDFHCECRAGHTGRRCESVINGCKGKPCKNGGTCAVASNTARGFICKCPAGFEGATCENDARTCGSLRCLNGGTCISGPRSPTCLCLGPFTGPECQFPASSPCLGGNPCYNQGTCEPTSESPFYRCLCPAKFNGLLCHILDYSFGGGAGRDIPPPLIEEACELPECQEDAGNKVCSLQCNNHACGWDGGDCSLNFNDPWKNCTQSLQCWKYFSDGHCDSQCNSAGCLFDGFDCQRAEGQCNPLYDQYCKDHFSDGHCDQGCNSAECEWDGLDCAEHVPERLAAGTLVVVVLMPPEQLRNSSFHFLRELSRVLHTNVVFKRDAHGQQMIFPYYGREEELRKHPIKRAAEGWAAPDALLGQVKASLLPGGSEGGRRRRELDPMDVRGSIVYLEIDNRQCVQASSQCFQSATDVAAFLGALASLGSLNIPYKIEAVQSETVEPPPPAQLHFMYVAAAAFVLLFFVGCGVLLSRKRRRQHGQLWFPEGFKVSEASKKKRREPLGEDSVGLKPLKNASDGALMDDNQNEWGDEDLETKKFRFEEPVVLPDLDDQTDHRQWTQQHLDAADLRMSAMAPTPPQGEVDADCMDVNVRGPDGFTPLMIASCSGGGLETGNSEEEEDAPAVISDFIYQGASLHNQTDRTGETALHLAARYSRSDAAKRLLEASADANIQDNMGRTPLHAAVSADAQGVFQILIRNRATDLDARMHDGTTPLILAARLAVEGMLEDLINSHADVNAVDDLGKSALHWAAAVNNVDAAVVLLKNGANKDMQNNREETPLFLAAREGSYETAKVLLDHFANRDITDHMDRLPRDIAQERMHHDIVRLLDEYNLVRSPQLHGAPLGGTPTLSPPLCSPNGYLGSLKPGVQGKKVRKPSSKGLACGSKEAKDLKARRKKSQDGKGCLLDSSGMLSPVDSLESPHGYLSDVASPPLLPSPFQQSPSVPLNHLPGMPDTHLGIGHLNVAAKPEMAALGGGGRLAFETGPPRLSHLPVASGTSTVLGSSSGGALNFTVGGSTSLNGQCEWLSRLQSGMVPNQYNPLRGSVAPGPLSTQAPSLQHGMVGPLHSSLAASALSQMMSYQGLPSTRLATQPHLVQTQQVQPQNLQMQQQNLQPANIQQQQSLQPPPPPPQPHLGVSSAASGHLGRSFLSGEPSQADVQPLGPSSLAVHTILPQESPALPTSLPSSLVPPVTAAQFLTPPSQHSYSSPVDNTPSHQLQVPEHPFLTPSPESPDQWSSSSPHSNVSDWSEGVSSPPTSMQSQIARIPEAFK

What was measured:
[1] = molecular target: T1, SLC35D3 (solute carrier family 35, member D3), His-tagged (UniProt Q5M8T2); test: co-IP; HEK293T cells 48 h after transfection, lysed in IP lysis buffer; lysates incubated with antibodies at 4 °C overnight, protein A/G beads 1 h at room temperature; immunoblot
T1 sequence: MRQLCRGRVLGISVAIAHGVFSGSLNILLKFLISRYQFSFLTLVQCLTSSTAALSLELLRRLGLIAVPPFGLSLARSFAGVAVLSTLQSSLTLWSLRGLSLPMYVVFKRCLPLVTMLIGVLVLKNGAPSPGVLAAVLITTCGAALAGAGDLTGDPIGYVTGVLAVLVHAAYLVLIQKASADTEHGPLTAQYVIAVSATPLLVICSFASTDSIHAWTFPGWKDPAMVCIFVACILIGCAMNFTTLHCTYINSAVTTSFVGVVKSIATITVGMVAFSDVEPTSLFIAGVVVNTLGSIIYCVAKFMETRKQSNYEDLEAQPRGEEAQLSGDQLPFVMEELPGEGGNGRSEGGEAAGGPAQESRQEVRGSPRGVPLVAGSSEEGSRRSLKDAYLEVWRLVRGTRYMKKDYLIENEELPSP

GST-SLC35D3 = molecular target: T2, GST-SLC35D3 (UniProt Q5M8T2); test: pull-down; purified GST-SLC35D3 (bait) immobilised on glutathione affinity resin, incubated with Myc-ECD protein lysate at 4 °C for at least 1 h; western blot; only the target purified
T2 sequence: T1 sequence

binding [1] | binding (GST-SLC35D3) | Substance
binds | – | NOTCH1 (from UniProt P46531 19-2555) (receptor)
binds | binds | myc-tagged NOTCH1 extracellular domain (ECD) (from UniProt P46531 19-1735) (domain or fragment)
